Data taken from the supplement of paper PMC12067093, “Discovery and optimisation of a covalent ligand for TRIM25 and its application to targeted protein ubiquitination” (Chemical Science, 2025).
This is one part of the list.

Chains of the proteins cited; added tags and fusions are not shown. Lines headed by an entry give the natural chain unless they say otherwise; changes in a name come on top.
UniProt Q99567: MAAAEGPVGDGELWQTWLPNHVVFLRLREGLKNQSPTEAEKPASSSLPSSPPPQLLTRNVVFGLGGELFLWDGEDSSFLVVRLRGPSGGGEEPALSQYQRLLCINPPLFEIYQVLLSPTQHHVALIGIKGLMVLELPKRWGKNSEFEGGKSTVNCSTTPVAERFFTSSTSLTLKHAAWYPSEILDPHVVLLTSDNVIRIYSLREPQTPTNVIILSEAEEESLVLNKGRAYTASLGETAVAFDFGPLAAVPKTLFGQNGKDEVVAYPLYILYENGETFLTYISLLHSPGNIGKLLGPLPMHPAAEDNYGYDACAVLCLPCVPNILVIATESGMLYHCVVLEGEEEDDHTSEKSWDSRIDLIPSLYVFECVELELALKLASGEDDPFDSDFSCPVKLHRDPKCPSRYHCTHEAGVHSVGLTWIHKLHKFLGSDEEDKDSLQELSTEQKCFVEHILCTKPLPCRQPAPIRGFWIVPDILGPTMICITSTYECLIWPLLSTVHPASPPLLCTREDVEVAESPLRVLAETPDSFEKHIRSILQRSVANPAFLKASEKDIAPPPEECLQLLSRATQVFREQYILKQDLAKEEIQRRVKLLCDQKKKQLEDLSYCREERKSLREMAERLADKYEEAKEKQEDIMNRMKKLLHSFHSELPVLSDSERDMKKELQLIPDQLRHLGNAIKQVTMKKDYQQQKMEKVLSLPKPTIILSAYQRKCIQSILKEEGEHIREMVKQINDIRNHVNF
UniProt Q8TEM1: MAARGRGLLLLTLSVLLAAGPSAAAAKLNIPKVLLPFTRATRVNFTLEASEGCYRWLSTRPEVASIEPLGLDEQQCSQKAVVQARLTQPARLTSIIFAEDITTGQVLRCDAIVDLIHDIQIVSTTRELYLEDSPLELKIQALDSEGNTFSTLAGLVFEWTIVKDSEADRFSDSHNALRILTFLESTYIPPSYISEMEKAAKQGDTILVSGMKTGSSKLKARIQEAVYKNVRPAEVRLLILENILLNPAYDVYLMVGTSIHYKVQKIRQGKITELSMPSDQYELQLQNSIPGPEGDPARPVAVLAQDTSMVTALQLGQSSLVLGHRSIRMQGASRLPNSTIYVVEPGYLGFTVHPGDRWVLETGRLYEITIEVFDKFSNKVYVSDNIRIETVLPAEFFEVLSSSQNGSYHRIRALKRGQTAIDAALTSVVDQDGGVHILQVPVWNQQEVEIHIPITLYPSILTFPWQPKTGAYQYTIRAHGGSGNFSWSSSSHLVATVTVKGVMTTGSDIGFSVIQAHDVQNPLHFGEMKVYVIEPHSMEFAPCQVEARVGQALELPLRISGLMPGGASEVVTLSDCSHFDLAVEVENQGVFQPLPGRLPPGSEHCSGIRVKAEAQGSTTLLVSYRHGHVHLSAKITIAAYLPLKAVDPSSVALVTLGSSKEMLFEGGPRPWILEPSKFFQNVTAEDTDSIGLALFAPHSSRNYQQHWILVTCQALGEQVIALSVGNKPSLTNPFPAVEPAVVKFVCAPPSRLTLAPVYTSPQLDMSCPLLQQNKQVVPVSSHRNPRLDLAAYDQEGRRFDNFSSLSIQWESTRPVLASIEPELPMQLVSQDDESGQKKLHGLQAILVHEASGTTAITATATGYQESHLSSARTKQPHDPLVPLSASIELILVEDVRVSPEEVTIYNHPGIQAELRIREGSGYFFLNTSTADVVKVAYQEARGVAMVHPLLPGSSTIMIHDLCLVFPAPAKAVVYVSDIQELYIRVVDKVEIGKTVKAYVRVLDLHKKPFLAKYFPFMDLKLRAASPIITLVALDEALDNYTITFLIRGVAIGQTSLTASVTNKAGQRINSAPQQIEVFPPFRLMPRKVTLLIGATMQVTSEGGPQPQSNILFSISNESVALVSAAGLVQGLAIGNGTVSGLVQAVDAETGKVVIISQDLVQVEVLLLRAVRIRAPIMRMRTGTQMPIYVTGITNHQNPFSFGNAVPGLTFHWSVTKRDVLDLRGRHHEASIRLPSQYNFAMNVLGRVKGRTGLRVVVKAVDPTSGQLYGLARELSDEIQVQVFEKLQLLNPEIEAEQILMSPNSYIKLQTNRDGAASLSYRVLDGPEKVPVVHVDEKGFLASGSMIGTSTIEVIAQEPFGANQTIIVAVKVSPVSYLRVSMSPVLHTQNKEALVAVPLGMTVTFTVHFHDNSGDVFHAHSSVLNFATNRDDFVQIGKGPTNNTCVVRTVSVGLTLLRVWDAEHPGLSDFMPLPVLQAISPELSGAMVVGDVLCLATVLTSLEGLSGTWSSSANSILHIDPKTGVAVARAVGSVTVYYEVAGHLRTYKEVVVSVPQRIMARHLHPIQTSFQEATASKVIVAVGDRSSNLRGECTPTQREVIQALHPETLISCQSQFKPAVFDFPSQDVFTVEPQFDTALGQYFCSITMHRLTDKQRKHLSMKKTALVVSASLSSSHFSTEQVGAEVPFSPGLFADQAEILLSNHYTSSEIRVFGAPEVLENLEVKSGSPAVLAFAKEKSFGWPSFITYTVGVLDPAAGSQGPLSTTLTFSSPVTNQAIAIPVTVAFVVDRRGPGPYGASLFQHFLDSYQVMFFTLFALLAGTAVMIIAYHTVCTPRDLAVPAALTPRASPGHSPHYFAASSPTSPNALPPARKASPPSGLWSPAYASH
UniProt Q92621: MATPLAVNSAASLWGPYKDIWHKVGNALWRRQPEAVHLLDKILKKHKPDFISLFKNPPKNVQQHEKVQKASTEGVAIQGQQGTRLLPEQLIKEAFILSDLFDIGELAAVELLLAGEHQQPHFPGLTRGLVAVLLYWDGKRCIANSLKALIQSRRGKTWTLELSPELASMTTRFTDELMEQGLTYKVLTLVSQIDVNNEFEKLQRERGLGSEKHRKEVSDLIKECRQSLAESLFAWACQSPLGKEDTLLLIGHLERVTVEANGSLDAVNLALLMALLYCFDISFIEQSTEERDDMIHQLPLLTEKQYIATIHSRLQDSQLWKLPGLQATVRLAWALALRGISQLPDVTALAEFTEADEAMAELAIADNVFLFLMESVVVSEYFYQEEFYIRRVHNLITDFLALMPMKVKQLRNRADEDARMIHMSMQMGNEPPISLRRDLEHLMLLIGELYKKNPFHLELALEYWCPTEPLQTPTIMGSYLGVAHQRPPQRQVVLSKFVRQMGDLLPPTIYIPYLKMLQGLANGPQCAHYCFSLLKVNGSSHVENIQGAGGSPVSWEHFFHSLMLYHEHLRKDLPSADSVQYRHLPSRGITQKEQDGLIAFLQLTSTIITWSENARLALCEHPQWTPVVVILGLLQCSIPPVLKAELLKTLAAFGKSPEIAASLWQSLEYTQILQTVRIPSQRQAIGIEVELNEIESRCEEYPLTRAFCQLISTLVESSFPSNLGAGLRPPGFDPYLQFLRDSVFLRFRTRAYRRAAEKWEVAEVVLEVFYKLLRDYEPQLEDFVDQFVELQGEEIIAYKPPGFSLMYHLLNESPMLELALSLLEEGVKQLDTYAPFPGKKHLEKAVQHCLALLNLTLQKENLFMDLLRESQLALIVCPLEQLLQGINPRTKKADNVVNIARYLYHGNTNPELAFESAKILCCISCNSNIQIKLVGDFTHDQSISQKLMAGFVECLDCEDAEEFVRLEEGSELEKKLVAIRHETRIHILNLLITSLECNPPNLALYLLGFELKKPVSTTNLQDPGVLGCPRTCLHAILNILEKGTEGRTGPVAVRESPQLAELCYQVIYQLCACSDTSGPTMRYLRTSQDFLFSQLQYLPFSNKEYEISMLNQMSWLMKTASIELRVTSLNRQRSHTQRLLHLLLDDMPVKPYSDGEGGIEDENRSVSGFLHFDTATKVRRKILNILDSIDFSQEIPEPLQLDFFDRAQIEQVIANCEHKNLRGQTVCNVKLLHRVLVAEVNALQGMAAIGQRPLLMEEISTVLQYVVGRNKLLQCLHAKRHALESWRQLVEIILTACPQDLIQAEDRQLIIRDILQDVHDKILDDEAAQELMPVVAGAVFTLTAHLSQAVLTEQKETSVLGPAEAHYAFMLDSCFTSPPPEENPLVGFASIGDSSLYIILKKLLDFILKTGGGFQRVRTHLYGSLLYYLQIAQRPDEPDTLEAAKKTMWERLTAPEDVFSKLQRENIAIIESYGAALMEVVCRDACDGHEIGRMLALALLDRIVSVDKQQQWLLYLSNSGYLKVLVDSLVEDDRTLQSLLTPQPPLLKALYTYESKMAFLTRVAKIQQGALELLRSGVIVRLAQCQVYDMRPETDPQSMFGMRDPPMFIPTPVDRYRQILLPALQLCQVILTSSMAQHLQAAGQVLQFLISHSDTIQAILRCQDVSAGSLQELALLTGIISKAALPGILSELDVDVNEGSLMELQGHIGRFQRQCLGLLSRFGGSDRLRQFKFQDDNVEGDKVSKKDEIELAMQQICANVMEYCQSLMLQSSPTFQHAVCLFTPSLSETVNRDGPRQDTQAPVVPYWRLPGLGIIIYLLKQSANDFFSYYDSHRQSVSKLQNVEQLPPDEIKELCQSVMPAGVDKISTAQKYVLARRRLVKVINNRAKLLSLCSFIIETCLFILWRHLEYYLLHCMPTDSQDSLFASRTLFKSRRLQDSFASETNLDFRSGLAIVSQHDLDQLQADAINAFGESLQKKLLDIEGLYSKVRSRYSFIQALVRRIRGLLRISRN
UniProt P52948: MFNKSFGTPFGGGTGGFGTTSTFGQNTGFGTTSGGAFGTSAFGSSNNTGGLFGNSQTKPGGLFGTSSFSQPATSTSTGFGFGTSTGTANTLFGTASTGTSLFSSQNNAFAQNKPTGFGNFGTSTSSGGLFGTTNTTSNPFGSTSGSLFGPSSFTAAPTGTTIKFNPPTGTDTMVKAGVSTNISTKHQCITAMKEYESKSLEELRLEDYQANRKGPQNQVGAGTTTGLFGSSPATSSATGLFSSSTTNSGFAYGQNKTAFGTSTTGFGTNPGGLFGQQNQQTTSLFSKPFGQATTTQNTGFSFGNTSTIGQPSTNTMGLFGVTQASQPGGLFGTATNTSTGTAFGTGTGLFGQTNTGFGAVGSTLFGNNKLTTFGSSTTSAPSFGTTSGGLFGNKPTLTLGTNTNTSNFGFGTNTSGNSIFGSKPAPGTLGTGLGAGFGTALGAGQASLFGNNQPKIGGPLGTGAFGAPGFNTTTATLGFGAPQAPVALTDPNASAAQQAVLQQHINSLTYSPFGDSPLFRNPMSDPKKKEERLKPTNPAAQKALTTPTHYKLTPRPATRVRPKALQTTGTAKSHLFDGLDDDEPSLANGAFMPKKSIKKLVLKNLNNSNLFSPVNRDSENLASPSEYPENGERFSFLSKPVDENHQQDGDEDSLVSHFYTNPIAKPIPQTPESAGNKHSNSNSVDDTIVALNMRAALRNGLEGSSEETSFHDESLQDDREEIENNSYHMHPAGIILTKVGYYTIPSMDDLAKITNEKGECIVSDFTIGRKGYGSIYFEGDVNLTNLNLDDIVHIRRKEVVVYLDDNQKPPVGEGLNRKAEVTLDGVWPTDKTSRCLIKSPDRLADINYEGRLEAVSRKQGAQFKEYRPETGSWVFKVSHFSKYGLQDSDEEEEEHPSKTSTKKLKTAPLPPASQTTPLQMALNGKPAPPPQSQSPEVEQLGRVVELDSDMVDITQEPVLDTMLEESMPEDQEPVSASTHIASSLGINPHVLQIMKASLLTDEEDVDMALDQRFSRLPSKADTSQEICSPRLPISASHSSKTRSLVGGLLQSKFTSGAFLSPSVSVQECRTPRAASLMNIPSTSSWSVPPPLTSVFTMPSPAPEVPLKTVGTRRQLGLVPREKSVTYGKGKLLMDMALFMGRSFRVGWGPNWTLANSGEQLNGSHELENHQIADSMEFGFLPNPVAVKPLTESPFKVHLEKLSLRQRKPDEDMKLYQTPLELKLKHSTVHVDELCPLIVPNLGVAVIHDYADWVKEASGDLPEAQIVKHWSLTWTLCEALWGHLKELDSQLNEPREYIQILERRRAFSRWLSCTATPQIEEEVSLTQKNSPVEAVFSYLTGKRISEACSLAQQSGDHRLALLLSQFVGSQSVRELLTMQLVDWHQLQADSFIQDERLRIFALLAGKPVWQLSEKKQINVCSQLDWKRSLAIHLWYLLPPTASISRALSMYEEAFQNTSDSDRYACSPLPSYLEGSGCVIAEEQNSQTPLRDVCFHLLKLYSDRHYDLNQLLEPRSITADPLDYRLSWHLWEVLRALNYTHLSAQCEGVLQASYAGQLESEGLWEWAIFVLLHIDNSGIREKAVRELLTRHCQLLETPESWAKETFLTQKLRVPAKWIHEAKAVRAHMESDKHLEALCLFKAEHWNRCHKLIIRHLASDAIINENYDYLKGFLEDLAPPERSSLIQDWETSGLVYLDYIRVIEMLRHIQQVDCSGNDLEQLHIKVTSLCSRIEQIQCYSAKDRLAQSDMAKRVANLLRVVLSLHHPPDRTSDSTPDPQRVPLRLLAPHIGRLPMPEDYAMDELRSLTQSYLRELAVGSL

Compound: CC1Cc2ccccc2N1C(=O)C1CCCN(C1)C(=O)CCl (mixture of isomers) [TRIM25 ligand 11 (diastereomer mixture)]
Test: probe-labelled cysteine peptide fold change vs DMSO (competition) (log2 fold change); higher = less target engagement (more negative = stronger competition)
Conditions: THP-1, incubation time: 4 h
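Also: competitive chemoproteomic profiling in live THP-1 cells with an iodoacetamide desthiobiotin (IA-DTB) probe, comparing probe-labelled peptide intensities in compound-treated cells against DMSO-treated controls.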

Target | probe-labelled cysteine peptide fold change (10 µM) | probe-labelled cysteine peptide fold change (50 µM)
NUP88_Q99567_447+454_CFVEHILCTKPLPCR (UniProt Q99567) | 0.0844 | -0.0996
NTMT1_Q9BV86_68_TGTSCALDCGAGIGR (UniProt Q9BV86) | 0.0307 | 0.126
NUP210_Q8TEM1_109_CDAIVDLIHDIQIVSTTR (UniProt Q8TEM1) | 0.056 | 0.174
NUDT14_O95848_127_EAWEECGYHLAPSDLR (UniProt O95848) | 0.0677 | -0.039
NUP205_Q92621_1297_QLVEIILTACPQDLIQAEDR (UniProt Q92621) | 0.232 | 0.0863
NUP88_Q99567_608_QLEDLSYCR (UniProt Q99567) | -0.106 | -0.157
NUP62_P37198_475_DIIEHLNTSGAPADTSDPLQQICK (UniProt P37198) | -0.0721 | -0.0994
NUDT7_P0C024_72_RAPGEVCFPGGK (UniProt P0C024) | 0.0276 | -0.0536
NUMA1_Q14980_65_LDFVCSFLQK (UniProt Q14980) | 0.109 | 0.113
NUF2_Q9BZD4_111_VNDFETADILCPK (UniProt Q9BZD4) | -0.0887 | 0.000441
NUP160_Q12769_1166_NHDGECTAAPTNR (UniProt Q12769) | -0.19 | -0.197
NUP133_Q8WUM0_641_LLLCEHAEK (UniProt Q8WUM0) | -0.0511 | -0.0456
NVL_O15381_785_CDCYTGADLSALVR (UniProt O15381) | -0.0967 | -0.0832
NUP93_Q8N1F7_522_SSGQSAQLLSHEPGDPPCLR (UniProt Q8N1F7) | 0.0752 | -0.0115
OGA_O60502_896_LGCFEIAK (UniProt O60502) | 0.0886 | 0.0375
NUBP2_Q9Y5Y2_196_VMGIVENMSGFTCPHCTECTSVFSR (UniProt Q9Y5Y2) | -0.103 | 0.0461
NUP210_Q8TEM1_767_LTLAPVYTSPQLDMSCPLLQQNK (UniProt Q8TEM1) | 0.12 | -0.0136
OAS2_P29728_210_HWHQQCQK (UniProt P29728) | -0.27 | 0.109
NUP155_O75694_1344_YVENPSQVLNCER (UniProt O75694) | 0.0277 | 0.0513
NUP50_Q9UKX7_333_PLEGQAEGDSGECK (UniProt Q9UKX7) | 0.0058 | 0.166
NVL_O15381_309_GVLLHGPPGCGK (UniProt O15381) | 0.0215 | 0.162

Target | probe-labelled cysteine peptide fold change (10 µM) | probe-labelled cysteine peptide fold change (50 µM)
NUDT16_Q96DE0_23_HACHALLYAPDPGMLFGR (UniProt Q96DE0) | 0.132 | 0.285
NUP155_O75694_561_LHQEDQACATCLILACSTAACDR (UniProt O75694) | 0.102 | 0.053
NXF1_Q9UBU9_143_CSVPFTPIEFHYENTR (UniProt Q9UBU9) | -0.172 | 0.46
NUP153_P49790_871+874_CLACESAKPGTK (UniProt P49790) | -0.0172 | 0.0935
NT5DC3_Q86UY8_506_FADIYMASLSCLLNYDVSHTFYPR (UniProt Q86UY8) | -0.461 | -0.393
ODF2_Q5BJF6_136_KIDSLMNAVGCLK (UniProt Q5BJF6) | 0.0615 | -0.0363
NUMA1_Q14980_80_KHPSSPECLVSAQK (UniProt Q14980) | 0.0689 | -0.198
NUBP2_Q9Y5Y2_54_VGILDVDLCGPSIPR (UniProt Q9Y5Y2) | -0.0576 | -0.00943
NUP107_P57740_78_QPDISCILGTGGK (UniProt P57740) | -0.049 | -0.2
NTMT1_Q9BV86_64_TGTSCALDCGAGIGR (UniProt Q9BV86) | 0.137 | 0.121
NUDT2_P50583_123_WLGLEEACQLAQFK (UniProt P50583) | -0.024 | -0.118
NUP188_Q5SRE5_9_AAAAGGPCVR (UniProt Q5SRE5) | 0.0541 | 0.095
OGA_O60502_166_RKLDQVSQFGCR (UniProt O60502) | -0.0194 | -0.0376
NUP155_O75694_551_LHQEDQACATCLILACSTAACDR (UniProt O75694) | 0.24 | 0.141
NUDT12_Q9BQG2_247_QRHENCYFLHPPMPALLQLK (UniProt Q9BQG2) | -0.072 | -0.0345
OCRL_Q01968_64+82_CVQEAEETLLIDIASNSGCK (UniProt Q01968) | -0.138 | -0.458
NUP160_Q12769_1309_VQNNLYHHCVINK (UniProt Q12769) | 0.17 | 0.227
NUBP1_P53384_256_ESQIFPPTTGGAELMCQDLEVPLLGR (UniProt P53384) | -0.0546 | -0.0563
OGDH_Q02218_331_ELEQIFCQFDSK (UniProt Q02218) | 0.0951 | 0.129
NUP188_Q5SRE5_1283_DGVCVLGLHLAK (UniProt Q5SRE5) | -0.0712 | -0.224
OCIAD2_Q56VL3_106_VSYIGVCQSK (UniProt Q56VL3) | -0.0503 | 0.116

Reformatted as a markdown table: part of the list above.

| Target | probe-labelled cysteine peptide fold change (10 µM) | probe-labelled cysteine peptide fold change (50 µM) |
| --- | --- | --- |
| NTMT1_Q9BV86_64_TGTSCALDCGAGIGR (UniProt Q9BV86) | 0.137 | 0.121 |
| NUDT2_P50583_123_WLGLEEACQLAQFK (UniProt P50583) | -0.024 | -0.118 |
| NUP188_Q5SRE5_9_AAAAGGPCVR (UniProt Q5SRE5) | 0.0541 | 0.095 |
| OGA_O60502_166_RKLDQVSQFGCR (UniProt O60502) | -0.0194 | -0.0376 |

Carrying on.

Target | probe-labelled cysteine peptide fold change (10 µM) | probe-labelled cysteine peptide fold change (50 µM)
NTPCR_Q9BSD7_184_NHLLPDIVTCVQSSR (UniProt Q9BSD7) | -0.141 | -0.0525
NUP98_P52948_760_GECIVSDFTIGR (UniProt P52948) | -0.00269 | 0.00601
NUFIP1_Q9UHK0_199_CPELDCSFTAHEK (UniProt Q9UHK0) | -0.0179 | 0.00519
NUP153_P49790_731_FKPVIGTWDCDTCLVQNKPEAIK (UniProt P49790) | 0.00899 | -0.00158
ODC1_P11926_114_IIYANPCK (UniProt P11926) | 0.256 | 0.186
NUP98_P52948_760_GECIVSDFTIGRK (UniProt P52948) | -0.203 | -0.173
NUP133_Q8WUM0_1075_LEILCK (UniProt Q8WUM0) | 0.205 | 0.252
OAT_P04181_150_VLPMNTGVEAGETACK (UniProt P04181) | 0.0276 | 0.0487
NUDCD2_Q8WVJ2_45_AQDIQCGLQSR (UniProt Q8WVJ2) | -0.0124 | 0.0403
NUP210_Q8TEM1_605_LPPGSEHCSGIR (UniProt Q8TEM1) | -0.0258 | -0.141
NUP133_Q8WUM0_1037_QLNLSAMPVLTAPQLIGLYICEENRR (UniProt Q8WUM0) | -0.119 | -0.16
NUP205_Q92621_237_QSLAESLFAWACQSPLGK (UniProt Q92621) | 0.114 | 0.15
NUP93_Q8N1F7_569_CVSELVIESR (UniProt Q8N1F7) | 0.425 | 0.186
NVL_O15381_431_FDREICLGIPDEASR (UniProt O15381) | -0.0502 | 0.0728
OCIAD1_Q9NX40_38_VFAECNDESFWFR (UniProt Q9NX40) | 0.123 | 0.262
NUDT18_Q6ZVK8_100_EEAGLHCEPETLLSVEER (UniProt Q6ZVK8) | 0.0358 | -0.0319
NUP133_Q8WUM0_700+702_EVSQVDTICECLLEHEEQVLR (UniProt Q8WUM0) | 0.507 | 0.631
NUP210_Q8TEM1_1611_EVIQALHPETLISCQSQFK (UniProt Q8TEM1) | 0.167 | 0.35
NUP160_Q12769_529_NLQQEFWCK (UniProt Q12769) | 0.248 | 0.177
OAS1_P00973_331_QLAQEAEAWLNYPCFK (UniProt P00973) | -0.16 | -0.193
NUP214_P35658_1003_TSCKDDEAVVQAPR (UniProt P35658) | -0.0732 | -0.222
